Publication PMC7755605
Results are given in words; binding and its absence hold for the method and conditions named. Binding seen in cells or lysates may run through a third protein. Binding can be weak; no strength is given. Tags and fused reporters may be left off the sequences shown.

Columns and labels:
[1] = biological target: T1, GST-tagged RING domain deficient TRAF6 with coiled-coil domain and TRAF-C domain (289-530aa) (mouse) (UniProt P70196); test: pull-down; 5 ug GST fusion protein on glutathione sepharose 4B beads incubated with lysate of HEK cells transfected with Np65-GFP, 1 h at 4 C, 500 ul RIPA lysis buffer; immunoblot; only the target purified
T1 sequence: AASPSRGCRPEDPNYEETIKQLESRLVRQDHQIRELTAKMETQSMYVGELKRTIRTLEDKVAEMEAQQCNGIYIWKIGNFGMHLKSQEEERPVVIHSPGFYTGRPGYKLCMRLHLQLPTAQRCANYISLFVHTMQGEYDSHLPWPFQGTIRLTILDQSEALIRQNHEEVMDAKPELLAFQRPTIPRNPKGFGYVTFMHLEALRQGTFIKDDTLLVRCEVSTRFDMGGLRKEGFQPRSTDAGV

[2] = biological target: T2, N-terminally GST-tagged TRAF6 (mouse) (UniProt P70196); test: as above
T2 sequence: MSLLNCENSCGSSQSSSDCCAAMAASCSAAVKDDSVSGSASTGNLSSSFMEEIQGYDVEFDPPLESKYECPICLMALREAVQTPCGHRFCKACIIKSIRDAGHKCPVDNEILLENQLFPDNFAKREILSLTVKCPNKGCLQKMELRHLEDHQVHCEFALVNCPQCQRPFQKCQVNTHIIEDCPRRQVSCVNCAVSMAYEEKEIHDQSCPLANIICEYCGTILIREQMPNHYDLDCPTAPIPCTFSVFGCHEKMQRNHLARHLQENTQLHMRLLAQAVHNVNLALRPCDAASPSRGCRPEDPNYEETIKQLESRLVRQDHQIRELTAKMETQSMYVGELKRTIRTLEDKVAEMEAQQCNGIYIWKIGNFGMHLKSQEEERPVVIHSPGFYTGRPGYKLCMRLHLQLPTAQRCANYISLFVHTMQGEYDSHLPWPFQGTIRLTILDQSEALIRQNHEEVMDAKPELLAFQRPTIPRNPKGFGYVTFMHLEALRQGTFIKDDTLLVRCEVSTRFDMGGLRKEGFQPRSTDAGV

- binding [1]: binds
- binding [2]: binds
Substance: GFP-tagged neuroplastin 65 with the DDEP insert (from UniProt P97546-2)
